Reference: patent publication US20260209152A1, “Substituted Hydroxystilbene Compounds and Derivatives, Synthesis and Uses Thereof” (Kynan Duke IP, LLC, priority 2019, published 2026)
At least one compound was matched to its structure with a doubt left.

Key:
[1] = tested on: CCL2 release from IL-4, IL-13, IL-22 and IFN-γ-stimulated primary human keratinocytes; conditions: assay description, cited from earlier work
[2] = tested on: IL-4 secretion from human CD4-positive T-cells stimulated with antiCD2/antiCD3/antiCD28-coated beads; conditions: assay description, cited from earlier work
[3] = tested on: IL-8 release from IL-17A and TNFα-induced primary human keratinocytes; conditions: assay description, cited from earlier work
[4] = tested on: Cancer cells including pancreatic, bladder, kidney, colon, breast, lung, liver and osteosarcomas; test: CellTiter Glo cell viability assay, panel of cancer cell lines; assay type: cell-based, human; conditions: for Cancer cell viability inhibition, statement in words: SAR discussion based on IC50 values in Tables 1 to 5, compared with 1 [KYN-001]
Experimental: Compounds 1 to 15 were evaluated and their effect on cancer growth examined in cell viability assays on multiple cancer types (Tables 1 to 5). Cancer cells including pancreatic, bladder, kidney, colon, breast, lung, liver and osteosarcomas obtained from ATCC (American Type Culture Collection) were authenticated before use by Short Tandem Repeat genomic analysis (Reid Y, Storts D, Riss T and Minor L. Authentication of Human Cell Lines by STR DNA Profiling Analysis. 2013 May 1. In: Markossian S, Sittampalam G S, Grossman A, et al., editors. Assay Guidance Manual. Bethesda (MD): Eli Lilly & Company and the National Center for Advancing Translational Sciences; 2004.). Experimental protocol for each cancer cell line was verified and optimized according to literature reports before use (Tables 1 to 3).
1.7*10^3 cells/well were seeded in quadruplicates in 96-well plate after plating. Drugs were added at 5 μM and 2-fold dilutions over 18 concentrations (0.000038146-5 […] range) to generate a dose-response curve. Cell growth was assessed on day 1, 3 and 5 after drug treatments using the CellTiter Glo Luminescence Cell Viability Assay (Promega) according to manufacturer's protocol. Thermo Scientific Varioskan LUX Multimode Microplate instrument was used for plate reading. Data are expressed as mean luminescence (arbitrary units) ±S.D.
Cell Viability Assays were employed to determine the concentration of Compound 1 (KYN-001) and analogues where the response is reduced by half. For each treatment of cancer cells, 1, 2, 5, 10 and 20 μM solutions of compounds were applied. […] Relative Luminescence Units were plotted against the log values of the doses used and the nonlinear regression model was used for data analysis.
The protocol for cell proliferation was optimized for Compound 8 (KYN-119) to enable a more accurate assessment of its low IC50 value. In this protocol, 18 dosages (2 fold dilutions ranging from 0.000038146 to 5 μM) were applied to cells seeded in 96-well plates, and Luminescence was measured after 1, 3 and 5 days upon treatments.

SMILES: C[C@H]1C[C@H]2[C@@H]3CCC4=CC(=O)C=C[C@]4(C)[C@@]3(F)[C@@H](O)C[C@]2(C)[C@@]1(O)C(=O)CO [Betamethasone]
- Emax (plateau of the fitted curve), CCL2 release (reference compound) [1]: approximately 60%
- EC50 ([1]; read-out: EC50, CCL2 release (reference compound)): ~15 nM
- Emax (plateau of the fitted curve), IL-4 release (reference compound) [2]: approximately 80%
- EC50 ([2]; read-out: EC50, IL-4 release (reference compound)): ~15 nM
- Emax (plateau of the fitted curve), IL-8 release (reference compound) [3]: approximately 50%
- EC50 ([3]; read-out: EC50, IL-8 release (reference compound)): ~10 nM

SMILES: CCOc1cc(O)cc(/C=C/c2ccc(O)c(OC)c2)c1CC=C(C)C [Compound 8, (E)-3-Ethoxy-5-(4-hydroxy-3-methoxystyryl)-4-(3-methylbut-2-en-1-yl)phenol]
- Effect on cell viability on Day 1 ([4]; Day 1 upon treatment at dosages <1 μM): neither 1 nor 8 affect cell viability

SMILES: COc1cc(C=Cc2cc(O)cc(OC(C)C)c2CC=C(C)C)ccc1O [Compound 10, 3-(4-Hydroxy-3-methoxystyryl)-5-isopropoxy-4-(3-methylbut-2-en-1-yl)phenol]
- Cancer cell viability inhibition, statement in words [4]: comparable or weaker biological activity

SMILES: COc1cc(/C=C/c2cc(O)cc(N)c2CC=C(C)C)ccc1O [Compound 47, (E)-3-Amino-5-(4-hydroxy-3-methoxystyryl)-4-(3-methylbut-2-en-1-yl)phenol]
- Cancer cell viability inhibition, statement in words [4]: indeterminate anticancer activity response
